From paper PMC10709558
No constants are given. Whether binding was seen depends on the method and setting. In cells and extracts the contact can be indirect. A yes stands for co-enrichment or nearness to the bait. Other partners may have been found.

By UniProt entry, the sequences of proteins in these tests, tags left out. Where a name states a change or a piece, a line headed by the entry shows the natural chain unless it says otherwise. Residues count along the entry.
UniProt P16070, residues 21-742: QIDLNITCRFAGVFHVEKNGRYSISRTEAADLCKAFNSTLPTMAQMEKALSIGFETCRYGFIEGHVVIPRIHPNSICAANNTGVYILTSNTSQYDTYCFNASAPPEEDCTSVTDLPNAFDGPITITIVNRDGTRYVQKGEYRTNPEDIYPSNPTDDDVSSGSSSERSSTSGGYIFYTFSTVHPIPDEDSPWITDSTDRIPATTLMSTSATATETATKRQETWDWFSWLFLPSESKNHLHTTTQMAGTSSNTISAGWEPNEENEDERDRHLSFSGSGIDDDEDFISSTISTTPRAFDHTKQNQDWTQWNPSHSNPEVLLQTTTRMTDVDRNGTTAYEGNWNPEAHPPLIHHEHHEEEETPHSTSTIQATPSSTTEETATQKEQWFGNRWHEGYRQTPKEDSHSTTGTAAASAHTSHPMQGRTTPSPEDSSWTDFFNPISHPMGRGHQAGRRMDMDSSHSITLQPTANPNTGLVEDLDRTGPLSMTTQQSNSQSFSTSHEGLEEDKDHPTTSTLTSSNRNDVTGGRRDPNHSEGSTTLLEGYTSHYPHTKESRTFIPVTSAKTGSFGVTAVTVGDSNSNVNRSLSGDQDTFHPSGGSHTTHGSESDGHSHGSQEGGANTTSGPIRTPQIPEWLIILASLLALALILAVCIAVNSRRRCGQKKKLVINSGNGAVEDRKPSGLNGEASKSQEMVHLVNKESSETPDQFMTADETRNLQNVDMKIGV
UniProt P05556: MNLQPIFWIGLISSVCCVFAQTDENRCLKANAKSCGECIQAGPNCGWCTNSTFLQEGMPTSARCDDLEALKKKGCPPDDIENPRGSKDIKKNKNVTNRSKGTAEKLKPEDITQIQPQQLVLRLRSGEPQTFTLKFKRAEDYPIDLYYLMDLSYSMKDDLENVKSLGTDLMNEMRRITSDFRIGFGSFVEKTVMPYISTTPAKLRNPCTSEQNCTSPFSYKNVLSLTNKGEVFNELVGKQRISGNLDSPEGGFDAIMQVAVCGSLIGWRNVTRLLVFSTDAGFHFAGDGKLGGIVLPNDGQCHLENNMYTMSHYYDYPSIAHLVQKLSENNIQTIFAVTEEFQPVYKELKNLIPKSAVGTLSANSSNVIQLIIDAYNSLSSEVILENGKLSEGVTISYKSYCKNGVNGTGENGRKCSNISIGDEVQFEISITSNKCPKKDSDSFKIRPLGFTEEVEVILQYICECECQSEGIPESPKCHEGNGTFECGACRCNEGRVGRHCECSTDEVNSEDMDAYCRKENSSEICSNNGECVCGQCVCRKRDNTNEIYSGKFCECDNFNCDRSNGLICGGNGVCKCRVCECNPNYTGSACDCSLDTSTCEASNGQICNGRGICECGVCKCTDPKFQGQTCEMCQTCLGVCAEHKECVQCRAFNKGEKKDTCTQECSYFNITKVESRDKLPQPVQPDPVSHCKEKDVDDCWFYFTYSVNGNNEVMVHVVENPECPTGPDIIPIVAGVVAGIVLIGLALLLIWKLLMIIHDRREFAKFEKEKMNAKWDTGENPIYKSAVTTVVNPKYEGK

The substances below were run against T1, Kinesin Family Member 3B (human (endogenous in ESCC cells)) (UniProt O15066) (assay: affinity purification with mass spectrometry; lysed cells immunoprecipitated with IgG or anti-KIF3B antibody (IP Kit, Dai-an); gel strips analysed on a Q-Exactive, Proteome Discoverer).
T1 sequence: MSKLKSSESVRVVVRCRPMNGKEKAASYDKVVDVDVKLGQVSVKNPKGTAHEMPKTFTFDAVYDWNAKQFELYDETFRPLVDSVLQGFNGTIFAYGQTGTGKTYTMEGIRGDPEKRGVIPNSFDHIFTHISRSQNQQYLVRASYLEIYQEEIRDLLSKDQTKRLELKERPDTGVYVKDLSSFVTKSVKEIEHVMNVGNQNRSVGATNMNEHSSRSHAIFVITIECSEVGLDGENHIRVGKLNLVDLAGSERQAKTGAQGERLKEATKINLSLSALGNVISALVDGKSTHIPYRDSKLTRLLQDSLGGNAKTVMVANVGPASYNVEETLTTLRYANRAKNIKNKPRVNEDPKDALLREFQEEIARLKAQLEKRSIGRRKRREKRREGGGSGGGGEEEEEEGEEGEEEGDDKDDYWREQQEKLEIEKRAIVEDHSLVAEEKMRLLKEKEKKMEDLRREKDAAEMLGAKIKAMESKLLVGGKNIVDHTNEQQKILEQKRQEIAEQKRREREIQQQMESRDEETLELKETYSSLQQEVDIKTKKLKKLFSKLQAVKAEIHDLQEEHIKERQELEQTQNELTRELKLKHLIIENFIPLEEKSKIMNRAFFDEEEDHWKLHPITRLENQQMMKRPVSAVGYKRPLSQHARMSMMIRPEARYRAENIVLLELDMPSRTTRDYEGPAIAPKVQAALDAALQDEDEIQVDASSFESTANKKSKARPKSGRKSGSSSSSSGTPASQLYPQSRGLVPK
In the case of “CD44 (from UniProt P16070 21-742) (receptor)”, the binding is reported as “binds”. With “EGFR (from UniProt P00533 25-1210) (receptor)” the binding was “binds”. “Integrin-beta1 (from UniProt P05556 21-798) (receptor)” was tested, and the binding was “binds”.
